According to article PMC10667520:
Results are given in words; binding and its absence hold for the method and conditions named. In cells and extracts the contact can be indirect. Some results given as binding are weak or reduced against the parent protein; the word gives no strength.

Chains of the proteins cited; added tags and fusions are not shown. Residues count along the entry.
UniProt P46531, residues 19-1735: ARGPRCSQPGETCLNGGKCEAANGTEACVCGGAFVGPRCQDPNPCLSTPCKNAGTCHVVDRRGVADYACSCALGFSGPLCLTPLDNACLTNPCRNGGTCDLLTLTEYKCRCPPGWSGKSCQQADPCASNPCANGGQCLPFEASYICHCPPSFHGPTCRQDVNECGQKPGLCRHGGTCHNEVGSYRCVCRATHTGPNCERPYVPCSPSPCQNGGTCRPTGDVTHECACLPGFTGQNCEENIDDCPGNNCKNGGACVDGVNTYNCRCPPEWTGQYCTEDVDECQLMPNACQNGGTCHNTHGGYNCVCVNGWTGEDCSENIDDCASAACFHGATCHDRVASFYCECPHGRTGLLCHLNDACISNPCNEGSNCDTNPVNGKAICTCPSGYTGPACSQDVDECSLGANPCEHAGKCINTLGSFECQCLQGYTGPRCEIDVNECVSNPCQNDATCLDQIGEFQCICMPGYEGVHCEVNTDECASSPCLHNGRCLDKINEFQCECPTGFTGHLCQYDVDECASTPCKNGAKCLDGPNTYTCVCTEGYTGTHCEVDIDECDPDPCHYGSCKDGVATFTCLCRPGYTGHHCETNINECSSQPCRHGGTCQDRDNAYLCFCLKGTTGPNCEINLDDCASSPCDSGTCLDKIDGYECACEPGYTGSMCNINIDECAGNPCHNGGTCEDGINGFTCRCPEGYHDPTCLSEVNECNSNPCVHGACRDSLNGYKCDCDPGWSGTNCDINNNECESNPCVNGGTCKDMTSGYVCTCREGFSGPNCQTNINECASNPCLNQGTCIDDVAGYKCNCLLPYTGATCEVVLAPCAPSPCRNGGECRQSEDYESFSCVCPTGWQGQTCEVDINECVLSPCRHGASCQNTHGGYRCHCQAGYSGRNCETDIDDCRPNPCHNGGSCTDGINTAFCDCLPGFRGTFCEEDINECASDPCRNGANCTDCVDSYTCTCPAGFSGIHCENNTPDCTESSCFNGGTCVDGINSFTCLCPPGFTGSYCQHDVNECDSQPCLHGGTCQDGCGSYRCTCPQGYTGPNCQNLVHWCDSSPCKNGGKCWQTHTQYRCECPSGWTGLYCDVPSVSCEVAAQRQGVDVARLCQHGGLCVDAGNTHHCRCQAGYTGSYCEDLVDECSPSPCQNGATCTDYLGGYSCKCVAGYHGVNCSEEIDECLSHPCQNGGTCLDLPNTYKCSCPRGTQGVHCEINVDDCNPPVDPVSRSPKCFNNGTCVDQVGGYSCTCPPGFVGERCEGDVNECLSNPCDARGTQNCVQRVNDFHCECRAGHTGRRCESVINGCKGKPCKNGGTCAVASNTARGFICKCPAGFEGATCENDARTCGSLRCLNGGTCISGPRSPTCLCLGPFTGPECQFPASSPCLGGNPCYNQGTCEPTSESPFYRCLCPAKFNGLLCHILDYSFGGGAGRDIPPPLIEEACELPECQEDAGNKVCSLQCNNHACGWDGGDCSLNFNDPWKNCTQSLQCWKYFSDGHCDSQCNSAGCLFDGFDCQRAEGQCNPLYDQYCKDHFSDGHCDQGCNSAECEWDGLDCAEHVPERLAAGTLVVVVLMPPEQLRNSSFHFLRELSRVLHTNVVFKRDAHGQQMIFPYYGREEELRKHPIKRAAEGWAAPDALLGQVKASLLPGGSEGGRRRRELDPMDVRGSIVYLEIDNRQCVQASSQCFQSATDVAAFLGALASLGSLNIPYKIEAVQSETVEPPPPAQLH

Biological target: myc-tagged NOTCH1 extracellular domain (ECD) (UniProt P46531)
Experiment: co-IP; HEK293T cells 48 h after transfection, lysed in IP lysis buffer; lysates incubated with antibodies at 4 °C overnight, protein A/G beads 1 h at room temperature; immunoblot

B1: SLC35D3 lacking the last 30 amino acids (SLC35D3-30aa) (domain or fragment, UniProt Q5M8T2 1-386)
chain: MRQLCRGRVLGISVAIAHGVFSGSLNILLKFLISRYQFSFLTLVQCLTSSTAALSLELLRRLGLIAVPPFGLSLARSFAGVAVLSTLQSSLTLWSLRGLSLPMYVVFKRCLPLVTMLIGVLVLKNGAPSPGVLAAVLITTCGAALAGAGDLTGDPIGYVTGVLAVLVHAAYLVLIQKASADTEHGPLTAQYVIAVSATPLLVICSFASTDSIHAWTFPGWKDPAMVCIFVACILIGCAMNFTTLHCTYINSAVTTSFVGVVKSIATITVGMVAFSDVEPTSLFIAGVVVNTLGSIIYCVAKFMETRKQSNYEDLEAQPRGEEAQLSGDQLPFVMEELPGEGGNGRSEGGEAAGGPAQESRQEVRGSPRGVPLVAGSSEEGSRRSLK
In the case of B1, the binding is reported as “binds”.
